Measurements reported in publication PMC5620150.
Results are given in words; binding and its absence hold for the method and conditions named. In cells and extracts the contact can be indirect. Some entries that bind do so weakly or less than the wild type.

By UniProt entry, the sequences of proteins in these tests, tags left out.
UniProt Q92769: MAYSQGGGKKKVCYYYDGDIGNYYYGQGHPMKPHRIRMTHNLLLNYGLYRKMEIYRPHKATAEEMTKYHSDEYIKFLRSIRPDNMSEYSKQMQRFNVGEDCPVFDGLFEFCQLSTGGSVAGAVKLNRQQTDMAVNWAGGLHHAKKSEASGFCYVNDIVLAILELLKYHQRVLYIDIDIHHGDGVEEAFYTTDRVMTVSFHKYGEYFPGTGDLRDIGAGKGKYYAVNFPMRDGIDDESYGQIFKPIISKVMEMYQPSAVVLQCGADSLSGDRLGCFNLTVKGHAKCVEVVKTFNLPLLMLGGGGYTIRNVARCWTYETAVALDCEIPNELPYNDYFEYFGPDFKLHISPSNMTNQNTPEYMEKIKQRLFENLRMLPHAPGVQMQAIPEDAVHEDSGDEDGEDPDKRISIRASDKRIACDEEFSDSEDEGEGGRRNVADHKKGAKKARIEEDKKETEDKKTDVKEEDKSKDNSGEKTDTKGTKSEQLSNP

Biological target: T1, DAB2IP (human (endogenous in 786O)) (UniProt Q5VWQ8)
T1 sequence: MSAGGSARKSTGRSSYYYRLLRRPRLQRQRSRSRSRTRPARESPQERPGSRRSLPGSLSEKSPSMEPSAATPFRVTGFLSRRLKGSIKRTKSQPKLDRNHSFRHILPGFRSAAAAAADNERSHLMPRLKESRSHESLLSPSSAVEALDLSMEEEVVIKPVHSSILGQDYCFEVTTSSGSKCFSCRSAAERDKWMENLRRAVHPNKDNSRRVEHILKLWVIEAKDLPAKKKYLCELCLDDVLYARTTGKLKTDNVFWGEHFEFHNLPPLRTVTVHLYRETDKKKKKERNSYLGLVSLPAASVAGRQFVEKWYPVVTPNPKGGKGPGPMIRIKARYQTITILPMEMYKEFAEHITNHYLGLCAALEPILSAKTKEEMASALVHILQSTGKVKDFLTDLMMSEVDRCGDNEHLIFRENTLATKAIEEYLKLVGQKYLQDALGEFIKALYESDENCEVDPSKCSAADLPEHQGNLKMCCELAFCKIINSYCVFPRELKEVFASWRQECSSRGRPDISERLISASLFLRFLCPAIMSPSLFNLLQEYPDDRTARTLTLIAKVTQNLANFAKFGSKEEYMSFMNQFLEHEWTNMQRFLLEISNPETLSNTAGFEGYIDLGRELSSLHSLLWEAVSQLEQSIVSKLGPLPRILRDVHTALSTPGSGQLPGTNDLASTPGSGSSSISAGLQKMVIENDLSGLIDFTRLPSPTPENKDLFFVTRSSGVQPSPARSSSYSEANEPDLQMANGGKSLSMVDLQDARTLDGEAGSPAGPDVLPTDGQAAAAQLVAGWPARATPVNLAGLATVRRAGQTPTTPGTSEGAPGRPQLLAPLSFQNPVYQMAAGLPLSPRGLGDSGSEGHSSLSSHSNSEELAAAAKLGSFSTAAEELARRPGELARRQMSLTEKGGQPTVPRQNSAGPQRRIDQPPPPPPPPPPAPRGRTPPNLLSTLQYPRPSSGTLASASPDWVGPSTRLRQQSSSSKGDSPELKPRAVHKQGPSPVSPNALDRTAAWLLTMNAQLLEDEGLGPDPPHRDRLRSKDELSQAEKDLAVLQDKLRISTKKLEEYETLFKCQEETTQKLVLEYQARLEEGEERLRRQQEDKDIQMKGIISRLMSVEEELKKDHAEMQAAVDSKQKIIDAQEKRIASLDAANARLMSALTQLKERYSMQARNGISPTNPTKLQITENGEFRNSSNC
Test: co-IP; nuclear proteins extracted from wild type 786O cells; endogenous proteins; which antibody precipitated is not told

In the case of “histone deacetylase (HDAC2) (from UniProt Q92769 1-488) (enzyme)”, the binding is reported as “binds”.
